Assay results reported in article PMC3210800.
No constants are given. Whether binding was seen depends on the method and setting. Some binding calls cover weakened binding; strength is not graded here.

Chains of the proteins cited; added tags and fusions are not shown.
UniProt P9WNK5: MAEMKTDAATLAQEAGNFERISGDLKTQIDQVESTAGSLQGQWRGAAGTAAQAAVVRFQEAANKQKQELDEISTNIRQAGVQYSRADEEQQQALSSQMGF

Target: CFP10 in pBTnn (bacterial two-hybrid bait) (M. tuberculosis (H37Rv)) (UniProt P9WNK5)
Assay: two-hybrid

| Molecule | binding |
| --- | --- |
| ESAT6 in pTRGnn (bacterial two-hybrid target) (from UniProt P9WNK7 1-95) | binds |
| Rv3871 in pTRGnn (bacterial two-hybrid target) (protein, UniProt P9WNB1 1-591) MTAEPEVRTLREVVLDQLGTAESRAYKMWLPPLTNPVPLNELIARDRRQPLRFALGIMDEPRRHLQDVWGVDVSGAGGNIGIGGAPQTGKSTLLQTMVMSAAATHSPRNVQFYCIDLGGGGLIYLENLPHVGGVANRSEPDKVNRVVAEMQAVMRQRETTFKEHRVGSIGMYRQLRDDPSQPVASDPYGDVFLIIDGWPGFVGEFPDLEGQVQDLAAQGLAFGVHVIISTPRWTELKSRVRDYLGTKIEFRLGDVNETQIDRITREIPANRPGRAVSMEKHHLMIGVPRFDGVHSADNLVEAITAGVTQIASQHTEQAPPVRVLPERIHLHELDPNPPGPESDYRTRWEIPIGLRETDLTPAHCHMHTNPHLLIFGAAKSGKTTIAHAIARAICARNSPQQVRFMLADYRSGLLDAVPDTHLLGAGAINRNSASLDEAVQALAVNLKKRLPPTDLTTAQLRSRSWWSGFDVVLLVDDWHMIVGAAGGMPPMAPLAPLLPAAADIGLHIIVTCQMSQAYKATMDKFVGAAFGSGAPTMFLSGEKQEFPSSEFKVKRRPPGQAFLVSPDGKEVIQAPYIEPPEEVFAAPPSAG | binds |
